Measurements reported in PubChem BioAssay AID256 (DTP/NCI, 2004).
The list shows only some results of the screen, not a fair sample: it is rich in T/C values a quarter to a half above the control, in often repeated tests (any T/C) and in doses without a T/C. Other doses and runs of a compound stand elsewhere. T/C: endpoint of the treated group in % of that of the vehicle group. Some entries give survivors of the animals treated and no T/C: the source files T/C as zero there, which appears to mark a toxic dose or a test without result, not a measured value. Some doses without a T/C left all or most animals alive at the check, yet need not have been tolerated: survival well below the control is almost never listed, so the zero probably covers shortened survival too. Survivors were counted at the toxicity check, usually on the fifth day, unless a day is given; later deaths do not show. Schedule codes are those of the source, read here as Q, the interval in days (D) or hours (H), X, the number of doses. Where survival is the endpoint, the PubChem record calls one and a half times the control and up active, and a quarter to a half above the control has no call in these data; cut-offs in other NCI protocols can differ. Some T/C values carry the count of animals alive at the toxicity check (mostly the fifth day); where none is given, no animal had died by that day. Some entries were tested several times; their values stand side by side, smallest first. Brackets with × count equal records among those shown. Some schedule codes hold Z or #, which are not explained here.

Tested on: CD2F1 mice, L1210 leukemia ip, survival T/C
Experiment: NCI In Vivo Anticancer Drug Screen. Data for tumor model L1210 Leukemia (intraperitoneal) in CD2F1 (CDF1) mice
Settings: T/C endpoint: mean survival time, higher T/C = longer survival
How it was run: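 Read-out first: treated-group measurement over vehicle-control measurement, expressed as a ratio. Animals bore a transplanted tumor line and were dosed with compound or vehicle.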

N[C@@H](Cc1ccc(N(CCCl)CCCl)cc1)C(=O)O
T/C (dose: 0.5 mg/kg/injection, schedule: Q01DX009 (ip), vehicle: Klucel (hydroxypropylcellulose) (HPC)): 111, 113 (2×), 116, 125 % of control [5 of 6 alive] | T/C (dose: 0.5 mg/kg/injection, schedule: Q01DX009 (ip), vehicle: saline, evaluated on day 30): 106, 128 (2×), 157 % of control | T/C (dose: 0.5 mg/kg/injection, schedule: Q01DX009 (ip), vehicle: saline, evaluated on day 45): 137 % of control | T/C (dose: 1.0 mg/kg/injection, schedule: Q01DX009 (ip), vehicle: Klucel (hydroxypropylcellulose) (HPC)): 119, 121, 127 (2×), 127 % of control [5 of 6 alive] | T/C (dose: 1.0 mg/kg/injection, schedule: Q01DX009 (ip), vehicle: saline, evaluated on day 30): 130, 136, 158, 197 % of control | T/C (dose: 1.0 mg/kg/injection, schedule: Q01DX009 (ip), vehicle: saline, evaluated on day 45): 132 % of control | T/C (dose: 1.0 mg/kg/injection, schedule: Q04DX003 (ip), vehicle: saline, evaluated on day 5): 127 % of control | T/C (dose: 1.0 mg/kg/injection, schedule: Q04DX003 (ip), vehicle: saline, evaluated on day 30): 131 and 143 % of control | T/C (dose: 1.0 mg/kg/injection, schedule: Q04DX003 (ip), vehicle: saline, evaluated on day 45): 130 % of control | T/C (dose: 1.0 mg/kg/injection, schedule: Q## X010 (ip), vehicle: saline): 136 % of control | T/C (dose: 1.25 mg/kg/injection, schedule: Q01DX009 (ip), vehicle: saline): 132 % of control | T/C (dose: 1.5 mg/kg/injection, schedule: Q01DX009 (ip), vehicle: Klucel (hydroxypropylcellulose) (HPC)): 133 % of control | T/C (dose: 1.5 mg/kg/injection, schedule: Q04DX003 (ip), vehicle: saline): 137 % of control | T/C (dose: 2.0 mg/kg/injection, schedule: Q01DX001 (ip), vehicle: DMSO): 131 % of control | T/C (dose: 2.0 mg/kg/injection, schedule: Q01DX001 (ip), vehicle: Klucel (hydroxypropylcellulose) (HPC)): 127 % of control | T/C (dose: 2.0 mg/kg/injection, schedule: Q01DX001 (ip), vehicle: saline, evaluated on day 30): 107, 117, 129 % of control | T/C (dose: 2.0 mg/kg/injection, schedule: Q01DX001 (ip), vehicle: saline, evaluated on day 45): 138 % of control | T/C (dose: 2.0 mg/kg/injection, schedule: Q01DX009 (ip), vehicle: Klucel (hydroxypropylcellulose) (HPC)): 136, 138, 142, 146, 148 % of control | T/C (dose: 2.0 mg/kg/injection, schedule: Q01DX009 (ip), vehicle: saline, evaluated on day 30): 105, 143, 155, 162, 163 % of control | T/C (dose: 2.0 mg/kg/injection, schedule: Q01DX009 (ip), vehicle: saline, evaluated on day 45): 161 % of control | T/C (dose: 2.0 mg/kg/injection, schedule: Q01DX009 (ip), vehicle: water): 133 % of control | T/C (dose: 2.0 mg/kg/injection, schedule: Q03DX003 (ip), vehicle: saline): 146 % of control | T/C (dose: 2.0 mg/kg/injection, schedule: Q04DX003 (ip), vehicle: saline, evaluated on day 5): 119, 132, 161 % of control | T/C (dose: 2.0 mg/kg/injection, schedule: Q04DX003 (ip), vehicle: saline, evaluated on day 30): 116, 125, 147, 157 % of control | T/C (dose: 2.0 mg/kg/injection, schedule: Q04DX003 (ip), vehicle: saline, evaluated on day 45): 150 % of control | T/C (dose: 2.0 mg/kg/injection, schedule: Q## X010 (ip), vehicle: saline): 137 % of control | T/C (dose: 2.0 mg/kg/injection, schedule: Q## X010 (oral), vehicle: saline): 126 % of control | T/C (dose: 2.5 mg/kg/injection, schedule: Q04DX003 (ip), vehicle: saline): 132 % of control | T/C (dose: 3.0 mg/kg/injection, schedule: Q04DX003 (ip), vehicle: saline): 144 % of control | T/C (dose: 4.0 mg/kg/injection, schedule: Q01DX001 (ip), vehicle: DMSO): 132 % of control | T/C (dose: 4.0 mg/kg/injection, schedule: Q01DX001 (ip), vehicle: Klucel (hydroxypropylcellulose) (HPC)): 126 % of control | T/C (dose: 4.0 mg/kg/injection, schedule: Q01DX001 (ip), vehicle: saline with Tween-80): 140 % of control | T/C (dose: 4.0 mg/kg/injection, schedule: Q01DX001 (ip), vehicle: saline, evaluated on day 30): 119, 124, 141 % of control | T/C (dose: 4.0 mg/kg/injection, schedule: Q01DX001 (ip), vehicle: saline, evaluated on day 45): 135 % of control | T/C (dose: 4.0 mg/kg/injection, schedule: Q01DX005 (oral), vehicle: saline): 141 % of control | T/C (dose: 4.0 mg/kg/injection, schedule: Q01DX009 (ip), vehicle: Klucel (hydroxypropylcellulose) (HPC)): 155, 158, 172, 182, 196 % of control | T/C (dose: 4.0 mg/kg/injection, schedule: Q01DX009 (ip), vehicle: saline, evaluated on day 30): 103, 175, 177, 178, 192 % of control | T/C (dose: 4.0 mg/kg/injection, schedule: Q01DX009 (ip), vehicle: saline, evaluated on day 45): 171 % of control | T/C (dose: 4.0 mg/kg/injection, schedule: Q04DX003 (ip), vehicle: saline, evaluated on day 5): 162, 170, 174, 230 % of control | T/C (dose: 4.0 mg/kg/injection, schedule: Q04DX003 (ip), vehicle: saline, evaluated on day 30): 108, 160, 184, 197 % of control | T/C (dose: 4.0 mg/kg/injection, schedule: Q04DX003 (ip), vehicle: saline, evaluated on day 45): 177 % of control | T/C (dose: 4.0 mg/kg/injection, schedule: Q## X010 (oral), vehicle: saline): 136 % of control [9 of 10 alive] | T/C (dose: 6.0 mg/kg/injection, schedule: Q01DX009 (ip), vehicle: Klucel (hydroxypropylcellulose) (HPC)): 146 % of control | survivor count (dose: 7.5 mg/kg/injection, schedule: Q01DX007 (ip), vehicle: saline with Tween-80): 5 of 6 | survivor count (dose: 7.5 mg/kg/injection, schedule: Q01DX009 (ip), vehicle: saline with Tween-80): 3 of 6 | T/C (dose: 8.0 mg/kg/injection, schedule: Q01DX001 (ip), vehicle: Klucel (hydroxypropylcellulose) (HPC)): 145 % of control | T/C (dose: 8.0 mg/kg/injection, schedule: Q01DX001 (ip), vehicle: other): 133 % of control | T/C (dose: 8.0 mg/kg/injection, schedule: Q01DX001 (ip), vehicle: saline, evaluated on day 30): 140, 151, 162, 168 % of control | T/C (dose: 8.0 mg/kg/injection, schedule: Q01DX001 (ip), vehicle: saline, evaluated on day 45): 271 % of control | T/C (dose: 8.0 mg/kg/injection, schedule: Q01DX005 (oral), vehicle: saline): 140 % of control | T/C (dose: 8.0 mg/kg/injection, schedule: Q01DX007 (ip), vehicle: saline): 128 % of control | T/C (dose: 8.0 mg/kg/injection, schedule: Q01DX009 (ip), vehicle: Klucel (hydroxypropylcellulose) (HPC)): 90 [5 of 6 alive], 112, 125 (2×), 133 % of control | T/C (dose: 8.0 mg/kg/injection, schedule: Q01DX009 (ip), vehicle: saline, evaluated on day 30): 103, 108, 113, 130 % of control | T/C (dose: 8.0 mg/kg/injection, schedule: Q01DX009 (ip), vehicle: saline, evaluated on day 45): 128 % of control | survivor count (dose: 8.0 mg/kg/injection, schedule: Q01DX009 (ip), vehicle: saline): 6 of 6
